In patent publication US20260092121A1:
Substitutions are numbered along the chain they refer to. No constants are given. Whether binding was seen depends on the method and setting. Some entries that bind do so weakly or less than the wild type.

Amino acid sequences for entries named in this document (tags omitted). A change or cut given only in a name is not applied to a line headed by its entry. Residues count along the entry.
UniProt Q16620: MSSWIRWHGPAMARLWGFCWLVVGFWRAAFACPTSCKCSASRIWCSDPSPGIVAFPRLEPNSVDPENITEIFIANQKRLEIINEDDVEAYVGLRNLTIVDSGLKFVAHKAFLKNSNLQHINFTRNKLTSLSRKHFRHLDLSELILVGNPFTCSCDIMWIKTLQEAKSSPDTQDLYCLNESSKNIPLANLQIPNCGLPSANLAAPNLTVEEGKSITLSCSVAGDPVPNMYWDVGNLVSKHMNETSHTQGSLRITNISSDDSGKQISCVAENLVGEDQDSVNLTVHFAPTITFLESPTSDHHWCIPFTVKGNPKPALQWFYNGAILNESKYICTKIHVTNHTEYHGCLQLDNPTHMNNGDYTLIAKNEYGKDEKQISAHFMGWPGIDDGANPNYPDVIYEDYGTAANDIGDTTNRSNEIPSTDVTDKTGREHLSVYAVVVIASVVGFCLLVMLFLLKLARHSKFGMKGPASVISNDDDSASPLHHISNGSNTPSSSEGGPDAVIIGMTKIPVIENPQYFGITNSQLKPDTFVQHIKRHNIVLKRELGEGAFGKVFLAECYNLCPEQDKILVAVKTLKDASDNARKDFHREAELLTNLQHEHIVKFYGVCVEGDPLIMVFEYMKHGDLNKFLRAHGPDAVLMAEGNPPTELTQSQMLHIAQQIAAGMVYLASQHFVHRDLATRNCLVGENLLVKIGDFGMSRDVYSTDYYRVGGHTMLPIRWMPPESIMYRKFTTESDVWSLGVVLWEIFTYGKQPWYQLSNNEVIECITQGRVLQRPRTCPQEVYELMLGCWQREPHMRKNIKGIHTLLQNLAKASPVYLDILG
UniProt P15209: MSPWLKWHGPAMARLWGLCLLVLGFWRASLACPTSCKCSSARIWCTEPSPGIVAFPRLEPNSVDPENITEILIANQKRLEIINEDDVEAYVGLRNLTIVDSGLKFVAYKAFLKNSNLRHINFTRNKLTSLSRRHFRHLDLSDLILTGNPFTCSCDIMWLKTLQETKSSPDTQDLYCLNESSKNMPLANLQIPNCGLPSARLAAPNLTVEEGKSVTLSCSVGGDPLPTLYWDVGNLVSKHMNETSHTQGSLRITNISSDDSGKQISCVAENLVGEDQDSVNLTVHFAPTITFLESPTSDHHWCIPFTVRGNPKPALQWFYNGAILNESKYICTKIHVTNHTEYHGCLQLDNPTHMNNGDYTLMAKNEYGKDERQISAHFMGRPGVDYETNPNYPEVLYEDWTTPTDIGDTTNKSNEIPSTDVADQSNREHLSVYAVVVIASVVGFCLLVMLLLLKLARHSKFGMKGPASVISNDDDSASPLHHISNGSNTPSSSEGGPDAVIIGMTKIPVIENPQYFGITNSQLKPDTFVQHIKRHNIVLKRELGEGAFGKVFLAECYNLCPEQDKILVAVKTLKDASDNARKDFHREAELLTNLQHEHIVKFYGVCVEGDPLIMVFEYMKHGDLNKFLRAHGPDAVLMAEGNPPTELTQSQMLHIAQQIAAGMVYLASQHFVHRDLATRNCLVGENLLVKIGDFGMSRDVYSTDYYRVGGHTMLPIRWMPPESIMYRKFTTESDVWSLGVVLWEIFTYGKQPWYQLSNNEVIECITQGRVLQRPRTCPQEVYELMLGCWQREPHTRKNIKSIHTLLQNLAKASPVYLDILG
mouse TrkB on CHO-K1 cells: residues 32-821 of P15209
mTrkB, plate-immobilized (ELISA of the chicken-derived clones): residues 32-429 of P15209

B1: anti-TrkB chicken-derived clone B4.2 (antibody, V domains shown)
VH: AVTLDESGGGLQTPGGGLSLVCKASGFTFSSYTMQWVRQAPGKGLEWVAGICNDGTTTNYGSAVKGRATISRDNGQSTLRLQLNNLRAEDTGIYFCTRGVDICWNSGNNIDAWGHGTEVIVSS
VL: QAALTQPASVSANPGETVKITCSGGGSYYGSYYYGWYQQKSPGSAPVTVIYNNDKRPSDIPSRFSGSLSGSTNTLTITGVQVEDESVYFCGSKDSSGAGIYGAGTTLTVL
B2: anti-TrkB chicken-derived clone E4 (antibody, V domains shown)
VH: AVTLDESGGGLQTPGGGLSLVCKASGFTFSSHAMFWVRQAPGKGLEYVAYINYDGITFYGAAVKGRATISRDNGQSTVRLQLNNLRAEDTATYFCAKTTCSGCWDAAALIDAWGHGTEVIVSS
VL: QAALTQPASVSSNPGETVKITCSGGSSGYAYGWYQQKSPGSAPVTLIYSNDKRPSDIPSRFSGSKSGSTGTLTITGVQAEDEAVYYCGSFDSSSYIFGAGTTLTVL
B3: anti-TrkB chicken-derived clone B11 (antibody, V domains shown)
VH: AVTLDESGGGLQTPGGALSLVCKASGFTFSSFNMFWVRQAPGKGLEFVAHIKRNGGETDYGAAVKGRATISRDDGQSTVRLQLNNLRAEDTATYFCAKDAGDNCRWNYCTTNIDAWGHGTEVIVSS
VL: QAALTQPASVSANPGETVKITCSGGGRWYGTYYYGWYQQKSPGSAPVTVIYSNDKRPSDIPSRFSGSASGSTATLTITGVQADDEAVYYCGSWDSTDTTAFGAGTTLTVL
B4: anti-TrkB chicken-derived clone D5 (antibody, V domains shown)
VH: AVTLDESGGGLQTPGGPLSLVCEGSGFTFSSYGMAWVRQAPGKRLEWVASISSTGINAYYGAAVKGRATISRDNGQSTVRLQLNNLRAEDTGIYYCSKCAYSGSCSTSIDAWGHGTEVIVSS
VL: QAALTQPASVSANLGGTVEITCSGGSSGYGYGWYQQKSPGSAPVTVIYNNNNRPSDIPSRFSGSLSDSTHTLTITGVRAEDEAVYFCGAWESSATDIFGAGTTLTVL
B5: anti-TrkB chicken-derived clone E2 (antibody, V domains shown)
VH: AVTLDESGGGLQTPGGALSLVCKASGFDFSSNAMGWVRQAPGKGLEFIASITTDGSYTTYGAAVKGRATISRDDGQSTLRLQLNNLRAEDTATYYCAKDSSIHWNGYDIDAWGHGTEVIVSS
VL: QAALTQPSSVSANPGETVKITCSGSINNYGWYQQKSPGSAPVTVIYQNDKRPSDIPSRFSGSKSGSTGTLTITGVQAEDEAVYFCGSEDSRTYLGIFGAGTTLTVL
B6: anti-TrkB chicken-derived clone B1.2 (antibody, V domains shown)
VH: AVTLDESGGGLQTPGGGLSLVCKASGFTFSNHQMAWVRQAPGKGLEYVGLINAAGSWTYYGTAVKGRATISRDNGQSTVRLQLNNLRAEDTATYYCAKDVYGYCSTCGATIDTWGHGTEVIVSS
VL: QAALTQPSSVSANPGETVKITCSGPTYDYGWFQQKSPGSAPVTVIYYNDNRPSDIPSRFSGSKSGSTATLTITGVQAEDEAVYYCGTYEDNNGASFGAGTTLTVL
B7: anti-TrkB chicken-derived clone F1.3 (antibody, V domains shown)
VH: AVTLDESGGGLQTPGGALSLVCKASGFTFSSFPMVWVRQAPGKGLEFVAGIVRTSTPKYGAAVTGRATISRDNGQSTVRLQLNNLRAEDTGTYFCAKSATICGNCPEDIDAWGHGTEVIVSS
VL: QAALTQPASVSANPGETVKITCSGGSSDYGWFQQKSPGSAPVTVIYYSDKRPSDIPSRFSGSTSGSTNTLTITGVQVEDEAVYFCGSGDNSYVGFGAGTTLTVL
B8: anti-TrkB chicken-derived clone B5 (antibody, V domains shown)
VH: B7 VH
VL: QAALTQPASVSANPGETVKITCSGGSSDYGWFQQKSPGSAPVTVIYYSDKRPSDIPSRFSGSTSGSMGALIITGVQAEDEAVYFCGSRDSSNVAIFGAGTTLTVL
B9: anti-TrkB chicken-derived clone A12 (antibody, V domains shown)
VH: B7 VH
VL: B8 VL with T63A
B10: anti-TrkB clone 6B11 (antibody, V domains shown)
VH: QVQLQQSGAGLVKASQTLALTCAISGDSVSSNSAAWNWIRQSPSRGLEWLGRTYYRSKWYNDYAVSVKSRITINPDTSTNQFSLQLNSVTPEDTAVYYCTRGTGDKRAFDYWGQGTLVTVSS
VL: QSVLTQPPSASGTPGQRVTISCSGSSSNIGSYFVSWYQQLPGTAPKLLIYRNDKRPSGVPERFSGSKSGTSASLAISGLQSEDEADYYCAAWDDSLSGRIFGGGTKLTVL

Biological target: hTrkB, plate-immobilized (ELISA of the chicken-derived clones) (human) (UniProt Q16620)
Assay: ELISA

binding, binds:
B1
B2
B3
B4
B5
B6
B7
B8
B9

Biological target: mTrkB, plate-immobilized (ELISA of the chicken-derived clones) (mouse) (UniProt P15209)
Assay: ELISA

binding, binds:
B1
B2
B3
B4
B5
B6
B7
B8
B9

Biological target: human TrkB on CHO-K1 cells (human) (UniProt Q16620)
Assay: flow cytometry

binding, binds:
B1
B2
B3
B4
B5
B6
B10
B7
B8
B9

Biological target: mouse TrkB on CHO-K1 cells (mouse) (UniProt P15209)
Assay: flow cytometry

binding, binds:
B1
B2
B3
B4
B5
B6
B10
B7
B8
B9
